Data as given in PubChem BioAssay AID720505 (Drosophila RNAi Screening Center, 2013).
The screen tested about 20,000 reagents; this is a random part of those that have a named target and a result. Over the whole deposit, about 2,100 (10%) were called active. 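Raw plate signals without normalisation; calls rest on control-based scores that were not deposited; replicate 2 separates called from uncalled poorly.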 Names joined by + are all predicted targets of the reagent. The record does not give: the amount of reagent, the time to read-out.

- Assay: 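Fly regulators or components of the CRAC channel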 (primary screen)
- Cells: Drosophila S2R+ cells
- Reagents: long dsRNA against Drosophila genes
- Treatment: thapsigargin (2 µM) in calcium-free buffer to empty internal stores, then 2 mM calcium added back
- Measured: 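Fluo-4 signal in 384-well plates read on a FLIPR after thapsigargin (2 µM, calcium-free) store depletion and 2 mM calcium add-back; unnormalised mean endpoint per well; screen run twice, selected wells retested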
- Direction: calcium signal and retest calcium signal: higher = more calcium entry after store depletion
- Active means: 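About 1500 genes called as lowering calcium entry, by varying amounts, judged against per-plate control wells with STIM1 as positive and Rho1 as negative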
- Calls: active = called as lowering calcium entry; inactive = not called

Gene | dsRNA | calcium signal, replicate 1 | calcium signal, replicate 2 | retest calcium signal, replicate 1 | retest calcium signal, replicate 2 | Outcome
CG42249 | DRSC19383 | 103 | 82.8 | – | – | inactive
CG42249 | DRSC19826 | 109 | 120 | – | – | inactive
Amy-p | DRSC06786 | 169 | 158 | – | – | inactive
alt | DRSC15315 | 155 | 275 | – | – | inactive
porin | DRSC03594 | 91.3 | 126 | – | – | inactive
mfas | DRSC16997 | 138 | 124 | – | – | inactive
TppII | DRSC07565 | 138 | 95.3 | – | – | inactive
CG30109 + CG30108 | DRSC05674 | 73.9 | 93.5 | – | – | active
CG7130 | DRSC11797 | 98.9 | 145 | – | – | inactive
CG2150 | DRSC15420 | 82.7 | 130 | – | – | inactive
Tango1 | DRSC02127 | 112 | 305 | – | – | inactive
CG8778 | DRSC07264 | 91.8 | 134 | – | – | inactive
CG33648 | DRSC01387 | 74.7 | 122 | – | – | inactive
Kua | DRSC02100 | 97.6 | 129 | – | – | inactive
snoRNA:U31:54Ec + snoRNA:snR38:54Eb + snoRNA:U27:54Eb + 8 more | DRSC06458 | 113 | 142 | – | – | inactive
vis + achi | DRSC07277 | 133 | 203 | – | – | inactive
RpL27 | DRSC15638 | 79.1 | 115 | – | – | active
CG7465 | DRSC08592 | 58.1 | 58.2 | – | – | active
CG7465 | DRSC22320 | 96.5 | 214 | – | – | inactive
OS9 + Hf | DRSC03392 | 84.6 | 106 | – | – | inactive
CG33189 | DRSC21427 | 183 | 89.5 | – | – | inactive
CG17751 | DRSC15261 | 256 | 145 | – | – | inactive
CG17751 | DRSC22837 | 81.3 | 115 | – | – | inactive
Gs1 | DRSC00753 | 76.6 | 148 | – | – | inactive
pall | DRSC10364 | 108 | 166 | – | – | inactive
CG2924 | DRSC18525 | 142 | 158 | – | – | inactive
bdg | DRSC07136 | 86.7 | 91.6 | – | – | inactive
Exd2 | DRSC16105 | 199 | 150 | – | – | inactive
CG3803 | DRSC04420 | 86.3 | 231 | – | – | inactive
Hel25E | DRSC03342 | 116 | 146 | – | – | inactive
CG40485 | DRSC20624 | 67.2 | 186 | – | – | active
tzn | DRSC11755 | 93.3 | 80.7 | – | – | inactive
CG42327 | DRSC14936 | 126 | 111 | – | – | inactive
CG42327 | DRSC14937 | 153 | 95.5 | – | – | inactive
CG42327 | DRSC23337 | 109 | 145 | – | – | inactive
Ptp99A | DRSC13933 | 8211 | 136 | – | – | inactive
Ptp99A | DRSC14319 | 69.2 | 128 | – | – | active
Ptp99A | DRSC14320 | 140 | 111 | – | – | inactive
Ptp99A | DRSC16803 | 140 | 96.4 | – | – | inactive
Ptp99A | DRSC22125 | 77.9 | 155 | – | – | inactive
Ptp99A | DRSC22477 | 138 | 188 | – | – | inactive
Ptp99A | DRSC23033 | 120 | 159 | – | – | inactive
KP78a + KP78b | DRSC16721 | 142 | 110 | – | – | inactive
KP78a + KP78b | DRSC16722 | 123 | 162 | – | – | inactive
ssp7 | DRSC18878 | – | – | – | – | active
CG7304 | DRSC10804 | 80.7 | 154 | – | – | inactive
Dtwd2 + Obp84a | DRSC12603 | 71.8 | 141 | – | – | active
CG32588 | DRSC22285 | 87.1 | 197 | – | – | inactive
gsb-n | DRSC04021 | 115 | 112 | – | – | inactive
gsb-n | DRSC04693 | 93.8 | 138 | – | – | inactive
CG14868 | DRSC14991 | 82 | 154 | – | – | inactive
Hr83 | DRSC12521 | 101 | 129 | – | – | inactive
Fdx1 | DRSC11167 | 77.2 | 93.1 | – | – | inactive
Octbeta1R | DRSC16134 | 156 | 152 | – | – | inactive
Ssk | DRSC10756 | 126 | 141 | – | – | inactive
p38a | DRSC16743 | 62.5 | 187 | – | – | active
CG3294 | DRSC00590 | 115 | 121 | – | – | inactive
CG11257 | DRSC06068 | 160 | 142 | – | – | inactive
CG14309 | DRSC14788 | 187 | 204 | – | – | inactive
CG8620 | DRSC11020 | 74.5 | 73.7 | – | – | inactive

Looked up above.
CG3294 [DRSC00590], calcium signal, replicate 2: 121
Under “calcium signal, replicate 2”, vis + achi [DRSC07277] has 203
Entry of CG17751 [DRSC15261] under “calcium signal, replicate 2”: 145
snoRNA:U31:54Ec + snoRNA:snR38:54Eb + snoRNA:U27:54Eb + 8 more [DRSC06458], calcium signal, replicate 2: 142
For “calcium signal, replicate 1”, Ptp99A [DRSC16803] is entered as 140
CG7304 [DRSC10804], Outcome = inactive

The listing continues.
Gene | dsRNA | calcium signal, replicate 1 | calcium signal, replicate 2 | retest calcium signal, replicate 1 | retest calcium signal, replicate 2 | Outcome
CG14204 | DRSC19559 | 73.1 | 148 | – | – | active
Or56a | DRSC07495 | 165 | 140 | – | – | inactive
RpS24 | DRSC04414 | 81.4 | 123 | 104 | 105 | inactive
Acat1 | DRSC17766 | 128 | 140 | – | – | inactive
neo | DRSC16316 | 113 | 137 | – | – | inactive
CG7227 | DRSC03032 | 119 | 191 | – | – | inactive
dome | DRSC19583 | 117 | 109 | – | – | inactive
Acp53Ea | DRSC05916 | 144 | 133 | – | – | inactive
dpa | DRSC07604 | 176 | 119 | – | – | inactive
Gpdh2 | DRSC04346 | 95.5 | 229 | – | – | inactive
CG13630 | DRSC14631 | 232 | 266 | – | – | inactive
COX7AL | DRSC15313 | 118 | 111 | – | – | inactive
CG8219 | DRSC10971 | 100 | 75.5 | – | – | inactive
CG5334 | DRSC19941 | 89.5 | 102 | – | – | inactive
GstT4 | DRSC19757 | 118 | 153 | – | – | inactive
Agpat4 | DRSC10446 | 102 | 92.6 | – | – | active
CG12679 | DRSC20493 | 86.1 | 124 | – | – | inactive
CG14205 | DRSC19560 | 156 | 81.1 | – | – | inactive
CD98hc | DRSC15453 | 95.8 | 162 | – | – | inactive
cac | DRSC19743 | 120 | 80 | – | – | inactive
cac | DRSC20354 | 151 | 87.7 | – | – | inactive
CG17195 | DRSC15188 | 227 | 170 | – | – | inactive
Eato | DRSC01891 | 79 | 118 | – | – | inactive
Eato | DRSC03061 | 159 | 119 | – | – | inactive
CtBP | DRSC16617 | 87 | 101 | – | – | inactive
His3:CG33818 + His3:CG33857 + His3:CG33806 + 20 more | DRSC21267 | 40.9 | 45 | – | – | active
Ref1 | DRSC12497 | 81.4 | 99 | 142 | 128 | inactive
Ref1 | DRSC22387 | 53.5 | 188 | – | – | active
Or30a | DRSC03385 | 135 | 132 | – | – | inactive
Es2 | DRSC18663 | 120 | 89.6 | – | – | inactive
Taf4 | DRSC11297 | 109 | 86.2 | – | – | inactive
CG9727 | DRSC12585 | 119 | 88.7 | – | – | inactive
LIMK1 | DRSC19811 | 116 | 117 | – | – | inactive
CR15821 | DRSC08481 | 68 | 127 | – | – | inactive
Nlg1 | DRSC12532 | 118 | 146 | – | – | inactive
Nlg1 | DRSC12533 | 132 | 145 | – | – | inactive
Nlg1 | DRSC12539 | 125 | 150 | – | – | inactive
CG6118 | DRSC15968 | 102 | 85.5 | – | – | inactive
CG6118 | DRSC23197 | 133 | 187 | – | – | inactive
Cpr73D | DRSC11084 | 126 | 105 | – | – | inactive
Tbp | DRSC04662 | 178 | 133 | – | – | inactive
Tbp | DRSC23111 | 129 | 146 | – | – | inactive
Plc21C | DRSC00773 | 138 | 180 | – | – | inactive
CG14017 | DRSC02348 | 88.5 | 94.3 | – | – | inactive
CG31741 | DRSC02887 | 94.5 | 92.9 | – | – | inactive
CG42557 + CG42558 | DRSC16329 | 128 | 140 | – | – | inactive
